# For at least one compound, name, drawing or mass did not settle the structure.
# System: dopamine neurons
# Test: Reversal of amphetamine depression of dopamine neuron firing rates
# Assay type: in vivo
# Conditions: intravenous, anesthetized rats
# Experimental: Table 2. Dopamine neuron firing rates were recorded according to published procedures and drugs were injected intravenously in chloral hydrate anesthetized rats. A. Ability of drugs to reverse the depression in firing rates of dopamine neurons by 1 to 2 mg/kg amphetamine. The maximum effect is the maximum amount of the amphetamine effect that was reversed, even when doses were increased beyond dose causing maximum effect. […] B. Depression of dopamine neurons by full agonist apomorphine and partial agonists TDHL, (-)PPP and U-64,273A. Maximum effect is maximum depression that could be realized even after increasing doses beyong the dose causing maximum effect. For both A and B, the ED50 is the dose causing 50% of the respective antagonistic (A) or agonist (B) effect.
structure (smiles),measurement,value
"CN1CCN(C2=Nc3cc(Cl)ccc3Nc3ccccc32)CC1 [Clozapine, clozapine]",reversal of amphetamine's depression of DA neuronal firing (in words),completely reversed the amphetamine effect but did not increase rates above controls
